Experimental data: PubChem BioAssay AID720505 (Drosophila RNAi Screening Center, 2013)
Test: 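Fly regulators or components of the CRAC channel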 (primary screen). Cells: Drosophila S2R+ cells. Reagents: long dsRNA against Drosophila genes. Treatment: thapsigargin (2 µM) in calcium-free buffer to empty internal stores, then 2 mM calcium added back. Read-out: 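Fluo-4 signal in 384-well plates read on a FLIPR after thapsigargin (2 µM, calcium-free) store depletion and 2 mM calcium add-back; unnormalised mean endpoint per well; screen run twice, selected wells retested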. Reading the numbers: calcium signal and retest calcium signal: higher = more calcium entry after store depletion. Active means: 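About 1500 genes called as lowering calcium entry, by varying amounts, judged against per-plate control wells with STIM1 as positive and Rho1 as negative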. Meaning of the calls: active = called as lowering calcium entry; inactive = not called.
In all, the deposit lists about 20,000 reagents; below is a random part of those that have a named target and a result. Over the whole deposit, about 2,100 (10%) are marked active. 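Raw plate signals without normalisation; calls rest on control-based scores that were not deposited; replicate 2 separates called from uncalled poorly.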 A plus sign joins genes that one reagent is predicted to hit. The record does not give: the amount of reagent, the time to read-out.

calcium signal, replicate 1 | calcium signal, replicate 2 | retest calcium signal, replicate 1 | retest calcium signal, replicate 2 | outcome | gene knocked down | amplicon
187 | 84.5 | – | – | inactive | CG8665 | DRSC03098
106 | 87.5 | – | – | inactive | Ku80 | DRSC02699
111 | 102 | – | – | inactive | CG14837 | DRSC10207
97.6 | 133 | – | – | inactive | Obp83ef (Odorant-binding protein 83ef) | DRSC12268
108 | 78.9 | – | – | inactive | Eaf6 (Esa1-associated factor 6) | DRSC09901
99.6 | 101 | – | – | inactive | CG12081 | DRSC17802
66.1 | 91.9 | – | – | active | Lrr47 (Leucine-rich repeat 47) | DRSC03365
173 | 119 | – | – | inactive | SpdS (Spermidine Synthase) | DRSC16408
148 | 103 | – | – | inactive | PPO3 (Prophenoloxidase 3) | DRSC04325
114 | 122 | – | – | inactive | CG9192 | DRSC08639
73.7 | 93.8 | – | – | inactive | Cand1 (Cullin-associated and neddylation-dissociated 1) | DRSC01992
183 | 122 | – | – | inactive | CG15564 | DRSC15102
125 | 150 | – | – | inactive | Cpr76Bb (Cuticular protein 76Bb) | DRSC11061
83.5 | 71.4 | – | – | inactive | Cpr76Bb (Cuticular protein 76Bb) | DRSC22870
78.6 | 110 | – | – | inactive | kon (kon-tiki) | DRSC02033
50.9 | 52.6 | – | – | active | CG13295 | DRSC09969
133 | 136 | – | – | inactive | CG42382 | DRSC07671
54.1 | 76.6 | – | – | active | LPCAT (Lysophosphatidylcholine acyltransferase) | DRSC18157
128 | 108 | – | – | inactive | LPCAT (Lysophosphatidylcholine acyltransferase) | DRSC18257
64.7 | 85.9 | – | – | inactive | CG14147 | DRSC10149
84.3 | 109 | – | – | inactive | GstO2 (Glutathione S transferase O2) | DRSC10691
99 | 110 | – | – | inactive | Vha68-3 (Vacuolar H[+] ATPase 68kD subunit 3) | DRSC02809
101 | 133 | – | – | inactive | CG4982 | DRSC10465
91 | 132 | – | – | inactive | papi | DRSC00693
49.3 | 78.3 | – | – | active | Aduk (Another Drosophila Unc-51-like kinase) | DRSC16451
60.3 | 134 | – | – | active | Efa6 (Exchange factor for Arf 6) | DRSC15312
99.5 | 83.9 | – | – | inactive | Efa6 (Exchange factor for Arf 6) | DRSC16141
152 | 116 | – | – | inactive | CG14722 | DRSC14944
94.5 | 113 | – | – | inactive | wac (wee Augmin) | DRSC08349
62 | 93.1 | – | – | active | Taf6 (TBP-associated factor 6) | DRSC11299
188 | 85.8 | – | – | inactive | CG31817 | DRSC01537
209 | 92.4 | 6585 | 85.4 | inactive | CG31817 | DRSC01538
97.1 | 207 | – | – | inactive | CG31817 | DRSC22476
166 | 188 | – | – | inactive | CG17855 | DRSC02638
163 | 79.6 | – | – | inactive | Cyp9f3 (Cytochrome P450 9f3) | DRSC16636
150 | 163 | – | – | inactive | Epp (Ecdysteroid phosphate phosphatase) | DRSC14607
110 | 153 | – | – | inactive | slx1 (nuclease slx1) | DRSC12290
206 | 81 | – | – | inactive | a (arc) | DRSC04667
68.3 | 194 | – | – | inactive | a (arc) | DRSC04668
70.8 | 95.2 | – | – | active | Rh50 | DRSC08692
160 | 100 | – | – | inactive | CG1695 | DRSC20538
127 | 114 | – | – | inactive | CG12204 | DRSC19442
178 | 129 | – | – | inactive | dpr19 (defective proboscis extension response 19) | DRSC02237
109 | 48.2 | – | – | inactive | CG5592 | DRSC10524
112 | 126 | – | – | inactive | Rbp1 (RNA-binding protein 1) | DRSC16817
75.5 | 115 | – | – | inactive | CG14957 | DRSC08416
203 | 121 | – | – | inactive | Hr38 (Hormone receptor-like in 38) | DRSC03345
125 | 156 | – | – | inactive | Hr38 (Hormone receptor-like in 38) | DRSC23230
81 | 156 | – | – | inactive | CG14451 | DRSC11708
126 | 92.3 | – | – | inactive | CG30339 | DRSC05168
93.6 | 138 | – | – | inactive | CG11905 | DRSC09863
87.8 | 137 | – | – | inactive | SLO2 (slowpoke 2) | DRSC06212
132 | 145 | – | – | inactive | SLO2 (slowpoke 2) | DRSC06214
106 | 130 | – | – | inactive | SLO2 (slowpoke 2) | DRSC06216
112 | 151 | – | – | inactive | SLO2 (slowpoke 2) | DRSC06218
108 | 142 | – | – | inactive | SLO2 (slowpoke 2) | DRSC06219
82.1 | 133 | – | – | inactive | SLO2 (slowpoke 2) | DRSC23225
113 | 116 | – | – | inactive | CG6693 | DRSC16097
92.2 | 150 | – | – | inactive | CG33257 | DRSC09917
108 | 79.7 | – | – | inactive | CG11756 | DRSC19424
103 | 95 | – | – | inactive | CG15152 | DRSC02453
178 | 138 | – | – | inactive | Nach | DRSC07478
146 | 85.7 | – | – | inactive | Cf2 (Chorion factor 2) | DRSC00744
168 | 144 | – | – | inactive | Cf2 (Chorion factor 2) | DRSC23015
55.4 | 81.4 | – | – | active | Hsc70-3 (Heat shock protein 70 cognate 3) | DRSC20253
57.7 | 83.6 | – | – | active | CG1607 | DRSC15130
83.8 | 105 | – | – | inactive | OSCP1 | DRSC06304
115 | 125 | – | – | inactive | CG1428 | DRSC03708
118 | 118 | – | – | inactive | Bhmt (Betaine-homocysteine S-methyltransferase) | DRSC02079
70.6 | 128 | – | – | active | SmydA-7 (SET and MYND domain containing, arthropod-specific, member 7) | DRSC07340
119 | 127 | – | – | inactive | CG13002 | DRSC19521
184 | 142 | – | – | inactive | CG18132 | DRSC00518
240 | 160 | – | – | inactive | CG31106 | DRSC14655
222 | 91.6 | – | – | inactive | CG15651 | DRSC04242
282 | 141 | – | – | inactive | CG10761 | DRSC17753
113 | 68.9 | – | – | inactive | spoon (spoonbill) | DRSC18299
156 | 114 | – | – | inactive | stau (staufen) | DRSC07698
84.8 | 112 | – | – | inactive | Idh (Isocitrate dehydrogenase) | DRSC10779
80.6 | 89.8 | – | – | inactive | Alp13 (Alkaline phosphatase 13) | DRSC15781
92.4 | 146 | – | – | inactive | CG13928 | DRSC08397
71.1 | 76.1 | – | – | active | Prp5 (pre-mRNA processing factor 5) | DRSC19975
124 | 169 | – | – | inactive | Elo68alpha (Elongase 68alpha) | DRSC22725
123 | 76.6 | – | – | inactive | CG32984 | DRSC21602
123 | 109 | – | – | inactive | cbc (crowded by cid) | DRSC06957
99.4 | 110 | – | – | inactive | Or46a + asRNA:CR43467 | DRSC07489
82.3 | 87 | – | – | inactive | Or46a + asRNA:CR43467 | DRSC07490
115 | 93.6 | – | – | inactive | Or46a + asRNA:CR43467 | DRSC21590
107 | 117 | – | – | inactive | PH4alphaSG2 (prolyl-4-hydroxylase-alpha SG2) | DRSC15037
66.5 | 146 | – | – | active | Tif-IA | DRSC03717
72.6 | 122 | – | – | inactive | Tif-IA | DRSC03726
112 | 136 | – | – | inactive | ppk27 (pickpocket 27) | DRSC08168
76.9 | 195 | – | – | inactive | ppk27 (pickpocket 27) | DRSC22211
159 | 114 | – | – | inactive | Bgb | DRSC08148
113 | 105 | – | – | inactive | CG14007 | DRSC02339
102 | 97 | – | – | inactive | Dpy-30L1 (Dpy-30-like 1) | DRSC02959
89.3 | 101 | – | – | inactive | CG32447 | DRSC11732
133 | 167 | – | – | inactive | CG32447 | DRSC11805
160 | 176 | – | – | inactive | Acam + CG17770 | DRSC14110
213 | 159 | – | – | inactive | Acam + CG17770 | DRSC15264
75.2 | 87.5 | – | – | inactive | Trm1 (tRNA methyltransferase 1) | DRSC02951
107 | 213 | – | – | inactive | Twdlbeta (Tweedlebeta) | DRSC07310
69.5 | 81.7 | – | – | active | CG10660 | DRSC09769
346 | 149 | – | – | inactive | kek5 (kekkon 5) | DRSC19438
127 | 186 | – | – | inactive | CG13334 | DRSC06369
204 | 99.4 | – | – | inactive | CG1494 | DRSC20509
77.7 | 111 | – | – | inactive | lola (longitudinals lacking) | DRSC05220
72.6 | 112 | – | – | inactive | lola (longitudinals lacking) | DRSC05221
74.8 | 93.7 | – | – | inactive | lola (longitudinals lacking) | DRSC05222
77 | 102 | – | – | inactive | lola (longitudinals lacking) | DRSC05223
95.3 | 141 | – | – | inactive | lola (longitudinals lacking) | DRSC05224
153 | 130 | – | – | inactive | lola (longitudinals lacking) | DRSC06738
133 | 137 | – | – | inactive | lola (longitudinals lacking) | DRSC06739
159 | 97.2 | – | – | inactive | lola (longitudinals lacking) | DRSC06740
129 | 166 | – | – | inactive | lola (longitudinals lacking) | DRSC06741
144 | 183 | – | – | inactive | lola (longitudinals lacking) | DRSC06742
194 | 98.2 | – | – | inactive | lola (longitudinals lacking) | DRSC07646
94.9 | 142 | – | – | inactive | lola (longitudinals lacking) | DRSC07647

Hits (from the list above):
calcium signal, replicate 1 | calcium signal, replicate 2 | retest calcium signal, replicate 1 | retest calcium signal, replicate 2 | outcome | gene knocked down | amplicon
66.1 | 91.9 | – | – | active | Lrr47 (Leucine-rich repeat 47) | DRSC03365
50.9 | 52.6 | – | – | active | CG13295 | DRSC09969
54.1 | 76.6 | – | – | active | LPCAT (Lysophosphatidylcholine acyltransferase) | DRSC18157
49.3 | 78.3 | – | – | active | Aduk (Another Drosophila Unc-51-like kinase) | DRSC16451
60.3 | 134 | – | – | active | Efa6 (Exchange factor for Arf 6) | DRSC15312
62 | 93.1 | – | – | active | Taf6 (TBP-associated factor 6) | DRSC11299
70.8 | 95.2 | – | – | active | Rh50 | DRSC08692
55.4 | 81.4 | – | – | active | Hsc70-3 (Heat shock protein 70 cognate 3) | DRSC20253
57.7 | 83.6 | – | – | active | CG1607 | DRSC15130
70.6 | 128 | – | – | active | SmydA-7 (SET and MYND domain containing, arthropod-specific, member 7) | DRSC07340
71.1 | 76.1 | – | – | active | Prp5 (pre-mRNA processing factor 5) | DRSC19975
66.5 | 146 | – | – | active | Tif-IA | DRSC03717
69.5 | 81.7 | – | – | active | CG10660 | DRSC09769
